“And” between values parts separate entries of the source, which are not always exact repeats. Equal entries are not always repeated. The list shows a part of the results. This data set is noisy: repeats of one test often differ as much as different tests do.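 U2OS cells carrying ACE2 were mixed with U2OS cells carrying full-length spike, and fusion was scored by imaging as the share of nuclei showing both cell types' fluorescent markers. A compound counts as an inhibitory hit when it is non-toxic and its fusion z-score falls below -3, meaning more than three standard deviations below the plate's DMSO wells.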
test system: U2OS ACE2 x SARS-CoV-2 spike co-culture; assay: cell-cell fusion (fraction fused) z-score vs plate DMSO control; higher = more fusion; conditions: 30 µM; 5 h; toxicity class: non-toxic, passed QC

| Compound | cell-cell fusion (z-score) |
| --- | --- |
| CC(=O)O[C@H]1C[C@@H](OC(C)=O)C(C)(C)C2C[C@@H](OC(C)=O)[C@@]3(C)C4=CC(=O)O[C@@H](c5ccoc5)[C@]4(C)CCC3[C@]21C (some centres not stated) | inactive: 3.24 |
| O=C(O)c1ccc2cc(-c3ccc(O)c(C45CC6CC(CC(C6)C4)C5)c3)ccc2c1 | inactive: 3.05 |
| O=C(O)c1cc(-c2ccccc2)nc2ccccc12 | inactive: 2.44 |
| CCC(=O)Nc1cccc(Oc2nc(Nc3ccc(N4CCN(C)CC4)cc3OC)ncc2Cl)c1 | inactive: 0.512 |
| CNCCc1c[nH]c2ccc(O)cc12.O=C(O)C(=O)O [N-omega-Methyl-5-hydroxytryptamine oxalate salt] | inactive: 2.81 |
| OCC(O)COc1ccc(Cl)cc1 (configuration not stated) [Chlorphenesin] | inactive: 2.07 |
| COc1ccc(-c2coc3cc(O)cc(OC)c3c2=O)cc1 | inactive: 1.13 |
| Cl.Cn1c(CCCC(=O)O)nc2cc(N(CCCl)CCCl)ccc21 [Bendamustine hydrochloride] | inactive: 3.41 |
| Cl.O=C1CC2(CCCC2)CC(=O)N1CCCCN1CCN(c2ncccn2)CC1 | inactive: 4.6 |
| Cl.O=C1CC2(CCCC2)CC(=O)N1CCCCN1CCN(c2ncccn2)CC1 [Buspirone hydrochloride] | inactive: 2.05 |
| COCCOc1cc2nc[nH]c(=O)c2cc1OCCOC | inactive: 1.67 |
| CC(=O)NCCc1c[nH]c2ccccc12 [N-Acetyltryptamine] | inactive: 2.75 |
| COC(=O)C1=CO[C@@H](O[C@@H]2O[C@H](CO)[C@@H](O)[C@H](O)[C@H]2O)[C@H]2C1C(=O)C[C@@H]2C (some centres not stated) | inactive: 2.29 |
| C[C@@H](CN1CCC(Cc2ccccc2)CC1)[C@@H](O)c1ccc(O)cc1.Cl [Ro 25-6981 hydrochloride] | inactive: 1.46 |
| C[C@]12CC[C@H]3[C@@](O)(C1)OC(O2)[C@]3(COC(=O)c1ccccc1)O[C@@H]1O[C@H](CO)[C@@H](O)[C@H](O)[C@H]1O | inactive: 2.31 |
| COc1ccc(CC(C)(C)NC[C@H](O)c2cc(O)cc3c2OCC(=O)N3)cc1.Cl [BI 1744 hydrochloride] | inactive: -0.583 |
| C[C@]12CCC(=O)C=C1CCC1C2[C@@H](O)C[C@@]2(C)C1CC[C@]2(O)C(=O)CO (some centres not stated) | inactive: 0.588 |
| O=c1ccn([C@@H]2O[C@H](CO)[C@@H](O)[C@H]2O)c(=O)[nH]1 [Uridine] | inactive: 3.61 |
| Nc1ccn([C@@H]2O[C@H](CO)[C@@H](O)C2(F)F)c(=O)n1 [Gemcitabine] | inactive: 1.95 |
| C=CCN1CC[C@]23CCCCC2[C@H]1Cc1ccc(O)cc13.O=C(O)C(O)C(O)C(=O)O (some centres not stated) [Levallorphan tartrate] | inactive: 1.99 |
| N[C@@H]1CCCC[C@H]1N.O=C1[O][Pt][O]C1=O [Oxaliplatin (Eloxatin)] | inactive: 2.25 |

| Compound | cell-cell fusion (z-score) |
| --- | --- |
| C[C@](Cc1ccc(O)c(O)c1)(NN)C(=O)O [S-(-)-Carbidopa] | inactive: 2.02 |
| N#CCNC(=O)c1ccc(-c2ccnc(Nc3ccc(N4CCOCC4)cc3)n2)cc1 | inactive: 0.489 and inactive: -1.83 |
| CC(=O)NCCCS(=O)(=O)[O-].CC(=O)NCCCS(=O)(=O)[O-].[Ca+2] | inactive: 2.08 |
| CN1C(=O)C(Cc2c[nH]c3ccccc23)NC1=S (configuration not stated) [Necrostatin-1] | inactive: 1.13 |
| O=C([O-])c1ccccc1O.[Na+] | inactive: 0.527 |
| CN(C)C(=O)[C@H](O)[C@H](Cc1ccccc1)NC(=O)c1cc2cc(Cl)ccc2[nH]1 | inactive: -0.726 |
| C[C@H](CCC(=O)O)[C@H]1CC[C@H]2[C@@H]3[C@H](O)C[C@@H]4C[C@H](O)CC[C@]4(C)[C@H]3C[C@H](O)[C@]12C [Cholic Acid] | inactive: 1.64 |
| C=C[C@](C)(O)CCC=C(C)C | inactive: 1.4 |
| COc1ccc2c(c1)CCC1C2CC[C@@]2(C)C1CC[C@@H]2NCCCCCCN1C(=O)CCC1=O (some centres not stated) | inactive: 2.33 |
| CN1[C@@H]2CCC[C@H]1C[C@@H](NC(=O)c1nn(C)c3ccccc13)C2.Cl [Granisetron hydrochloride] | inactive: 2.71 |
| CC1Cc2ccccc2N1NC(=O)c1ccc(Cl)c(S(N)(=O)=O)c1 (configuration not stated) | inactive: 2.06 |
| N[C@@H]1CONC1=O [D-Cycloserine] | inactive: 2.34 |
| N[C@@H]1CONC1=O | inactive: 1.47 |
| CCCCCCCCCCCCCCCC[N+](C)(C)CCN(Cc1ccc(OC)cc1)c1ncccn1.[Br-] | active: -6.77 |
| COC(=O)CC1C(C)(C)C(OC(C)=O)[C@@H]2[C@@H](OC(C)=O)[C@]34O[C@@]2(O)[C@]1(C)C3CC[C@]1(C)C4=CC(=O)O[C@H]1c1ccoc1 (some centres not stated) | inactive: 1.84 |
| CC[C@H]1OC(=O)[C@H](C)[C@@H](O[C@H]2C[C@@](C)(OC)[C@@H](O)[C@H](C)O2)[C@H](C)[C@@H](O[C@@H]2O[C@H](C)C[C@H](N(C)C)[C@H]2O)[C@](C)(O)C[C@@H](C)C(=O)[C@H](C)[C@@H](O)[C@]1(C)O [Erythromycin] | inactive: 2.22 |
| COc1cc2c(cc1OC)-c1c(oc3c4c(ccc3c1=O)OC(C(C)C)C4)CO2 (configuration not stated) | inactive: 1.59 |
| Cl.c1ccc2nc(C3=NCCN3)ccc2c1 [BU224 hydrochloride] | inactive: 2.58 |
| NCCCC[C@H](N[C@@H](CCc1ccccc1)C(=O)O)C(=O)N1CCC[C@H]1C(=O)O | inactive: -0.78 |
| CCCNC(C)C(=O)Nc1ccccc1C.Cl (configuration not stated) [Prilocaine hydrochloride] | inactive: 0.734 |
| NC[C@@H]1O[C@H](O[C@H]2[C@@H](O)[C@H](O[C@@H]3[C@@H](O)[C@H](N)C[C@H](N)[C@H]3O[C@H]3O[C@H](CO)[C@@H](O)[C@H](O)[C@H]3N)O[C@@H]2CO)[C@H](N)[C@@H](O)[C@@H]1O.O=S(=O)(O)O [Paromomycin Sulfate] | inactive: 0.465 |

Copied from the list:
C=C[C@](C)(O)CCC=C(C)C – cell-cell fusion (z-score): inactive: 1.4
C[C@H](CCC(=O)O)[C@H]1CC[C@H]2[C@@H]3[C@H](O)C[C@@H]4C[C@H](O)CC[C@]4(C)[C@H]3C[C@H](O)[C@]12C [Cholic Acid] – cell-cell fusion (z-score): inactive: 1.64

Reprinted at random: 2 entries already listed

| Compound | cell-cell fusion (z-score) |
| --- | --- |
| O=C([O-])c1ccccc1O.[Na+] | inactive: 0.527 |
| Cl.c1ccc2nc(C3=NCCN3)ccc2c1 [BU224 hydrochloride] | inactive: 2.58 |

Reference: the supplement of paper PMC8104966
